Results are given in words; binding and its absence hold for the method and conditions named. Binding seen in cells or lysates may run through a third protein. A yes stands for co-enrichment or nearness to the bait. Other partners may have been found.
Target: Bombyx mori sucrose hydrolase (BmSUH), endogenous midgut protein (Bombyx mori (endogenous in larval midgut))
Assay: affinity purification with mass spectrometry; endogenous BmSUH immunoprecipitated with anti-BmSUH antibody and protein A+G agarose from midgut lysates of BmNPV-infected WT larvae (72 and 96 hpi; controls: uninfected WT, infected ΔBmSUH); IP buffer 20 mM Tris pH 7.5, 150 mM NaCl, 1% Triton X-100, 1 mM PMSF, 4°C overnight; 70 kDa and 100 kDa SDS-PAGE bands analysed by LC-MS/MS

B1: P74 (PIF0) of BmNPV, from infected midgut (protein, UniProt O92491 1-645)
chain: MAVLTAVDLTNASRYAIHMHRLEFISRWRTRFPHILIDYTLRPASSDDDYYVPPKLADRALAVKLTFSKRGCESMSCYPFHETGVVSNTTPFMYTQTSETRVGYAQPACYHLDRAAAMREGAENKVQSAEFRYTPDNRCILVDSLSKMYFNSPYLRTEEHTIMGVDDVPAFNVRPDPDPLFPERFKGEFNEAYCRRFGRNLFNGGCSFRWWESLVGFVLGDTILVTFKMLANNVFSELRNFDYRAPSSILPPRPNVDSNAILAQWRSVRDTTTDLEFEKLFTKRPTLNDLGMIVDGSPVQITYTAETGFTKTPITYNYRGTERVHVEHFEALDRSISDQDLESIITKFLEDYAIIFGIATDAGFEMLMSGFKSMLKKINTTLIPALKRMLVSTTRRVTARILGETYKAAIVHSFNAIAIKTLTTTAKALTRIAIKASSVIGIVLILLTLADLVLALWDPFGYNNMFPREFPDDMSRTFLTAYFESLDNTTSREIIEFMPEFFSDMVETDDKATFESLFHLLNYVTSLEVNSDGQMLKLDEGDKIEDFDESTLVGKALATSSLYTRMEFMQYTFRQNTILSMNKKNNNFNQIIMGLFATNTIVAFTAFVIHKQLIFFIFFVIFLMITFYYIVKESYGYYKTIDLLF
- binding: binds

Reference: publication PMC9668127
